PubChem BioAssay AID1259254 | NCATS, 2017

- Aim: 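Genome-wide screen for genes that prevent DNA re-replication in cancer cells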 (primary screen)
- Cells: human HCT116 colorectal cancer cells
- Knock-down reagent: single siRNA against human genes
- Duration: 3 days
- Measured: 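Nuclei stained with Hoechst and imaged; cell-cycle phase assigned by DNA content; G2 share scaled per plate, non-targeting siRNA 0%, GMNN siRNA 100%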
- Reading the numbers: G2 robust z-score: higher = more G2 cells, more excess DNA replication
- Hit rule: 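Active siRNAs have a G2 robust z of 5 or more median absolute deviations over the median, which in these data means about 38% or higher of GMNN control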
The deposit covers about 59,000 reagents; below is an unselected part. Of all reagents, about 1,550 (2.6%) were called active. 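G2 share is only a proxy for re-replication; each gene was hit by three separate siRNAs, and active genes were retested.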 A number with no mark means an inactive call. Reagents against one gene are numbered here. Further read-outs or replicates are left out here. Not given: the amount of reagent.

SLC44A1 #1 scored G2 robust z-score 1.32. After knock-down of SLC44A1 #2, the record shows G2 robust z-score -0.51. Against SLC44A1 #3 the deposit lists G2 robust z-score 0.164. EGF (epidermal growth factor) #1 scored G2 robust z-score -0.961. With knock-down of EGF (epidermal growth factor) #2 the results were G2 robust z-score 0.111. After knock-down of EGF (epidermal growth factor) #3 the results were G2 robust z-score 0.944.

With knock-down of GAB2 (GRB2 associated binding protein 2) #1, the screen gave G2 robust z-score -0.798. GAB2 (GRB2 associated binding protein 2) #2 scored G2 robust z-score -0.926. Against GAB2 (GRB2 associated binding protein 2) #3, the entry reads G2 robust z-score -0.481. CAPSL (calcyphosine like) #1 scored G2 robust z-score -1.17. Silencing of CAPSL (calcyphosine like) #2 resulted in: G2 robust z-score -0.129. For CAPSL (calcyphosine like) #3, the values are G2 robust z-score -0.0439.

ZP4 (zona pellucida glycoprotein 4) #1 scored G2 robust z-score -0.362. Depletion of ZP4 (zona pellucida glycoprotein 4) #2 came out at: G2 robust z-score 1.35. After knock-down of ZP4 (zona pellucida glycoprotein 4) #3, the record shows G2 robust z-score 1.37. LOC730179 (retired record) #1 gave G2 robust z-score 0.142. Against LOC730179 (retired record) #2 the deposit lists G2 robust z-score -0.0612. With knock-down of LOC730179 (retired record) #3, the record shows G2 robust z-score 0.799.

Against SP6 (Sp6 transcription factor) #1 the deposit lists G2 robust z-score 0.466. Depletion of SP6 (Sp6 transcription factor) #2 resulted in: G2 robust z-score -0.71. Against SP6 (Sp6 transcription factor) #3, the values are G2 robust z-score 0.675. Depletion of OR7A5 (olfactory receptor family 7 subfamily A member 5) #1 resulted in: G2 robust z-score 0.445. After knock-down of OR7A5 (olfactory receptor family 7 subfamily A member 5) #2, the record shows G2 robust z-score 3.77. Silencing of OR7A5 (olfactory receptor family 7 subfamily A member 5) #3 gave: G2 robust z-score 2.68.

Laid out differently: entries from further up
Gene	reagent	G2 robust z-score
ZP4 (zona pellucida glycoprotein 4)	1	-0.362
ZP4 (zona pellucida glycoprotein 4)	2	1.35
